In article PMC11995443:
No constants are given. Whether binding was seen depends on the method and setting. For some assays here: In cells and extracts the contact can be indirect. Some binding calls cover weakened binding; strength is not graded here. For some assays here: Sequences can lack the tags named with a protein.

Amino acid sequences for entries named in this document (tags omitted). Residues count along the entry.
UniProt P43297, residues 137-352: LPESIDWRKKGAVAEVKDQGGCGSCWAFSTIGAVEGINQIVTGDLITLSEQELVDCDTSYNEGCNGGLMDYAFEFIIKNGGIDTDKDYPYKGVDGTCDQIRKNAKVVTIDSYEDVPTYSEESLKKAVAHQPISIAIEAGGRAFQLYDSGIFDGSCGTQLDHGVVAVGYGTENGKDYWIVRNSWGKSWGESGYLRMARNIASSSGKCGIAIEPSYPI

How the values were obtained:
OTU2-nLUC (A. thaliana) = target: T1, OTU2-nLUC (A. thaliana) (UniProt Q9LPT6); experiment: split reporter; split-LUC: OTU2-nLUC co-expressed with RD21A-cLUC or vector control in N. benthamiana leaves; luciferin infiltrated 48 h after infiltration, luminescence imaged
T1 sequence: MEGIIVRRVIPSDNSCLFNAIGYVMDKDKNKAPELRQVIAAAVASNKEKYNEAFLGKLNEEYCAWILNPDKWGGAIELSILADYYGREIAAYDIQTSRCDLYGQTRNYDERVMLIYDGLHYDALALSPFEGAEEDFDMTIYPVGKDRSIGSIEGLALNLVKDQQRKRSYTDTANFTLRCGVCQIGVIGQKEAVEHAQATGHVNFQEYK

[1] = target: T2, ovarian tumor domain (OTU)-containing deubiquitilating enzyme 2 (OTU2), bait in pGBKT7 (A. thaliana) (UniProt Q9LPT6); experiment: two-hybrid; OTU2 (or its truncated derivatives) in pGBKT7 as bait, candidates in pGADT7 as prey; Y2H golden yeast cells; SD-Trp-Leu-His-Ade with X-alpha-Gal and aureobasidin A
T2 sequence: T1 sequence

Row | binding (OTU2-nLUC (A. thaliana)) | binding [1] | Substance
1 | binds | – | mature RD21A (mRD21A) fused to cLUC (from UniProt P43297 137-352) (domain or fragment)
2 | – | binds | mature RD21A (mRD21A), prey in pGADT7 (from UniProt P43297 137-352) (domain or fragment)
